Test results taken from the supplement of paper PMC10849652.
This is one part of the list.

Protein sequences, listed by entry. Tags and fused reporters are not part of them. Lines headed by an entry give the natural chain unless they say otherwise; changes in a name come on top.
UniProt Q92530: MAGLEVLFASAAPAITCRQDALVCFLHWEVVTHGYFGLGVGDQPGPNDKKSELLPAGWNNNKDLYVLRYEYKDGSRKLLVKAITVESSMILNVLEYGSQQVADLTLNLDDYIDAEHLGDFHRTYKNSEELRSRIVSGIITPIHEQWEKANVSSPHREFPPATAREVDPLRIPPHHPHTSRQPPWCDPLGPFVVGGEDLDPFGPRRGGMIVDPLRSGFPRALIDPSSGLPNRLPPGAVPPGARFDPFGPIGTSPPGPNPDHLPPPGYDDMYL
UniProt Q8TBF2: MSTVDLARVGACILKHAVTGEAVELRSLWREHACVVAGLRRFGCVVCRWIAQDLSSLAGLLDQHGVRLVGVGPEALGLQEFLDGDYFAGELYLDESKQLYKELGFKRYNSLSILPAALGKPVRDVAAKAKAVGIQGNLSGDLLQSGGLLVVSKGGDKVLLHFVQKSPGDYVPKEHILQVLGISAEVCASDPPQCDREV
UniProt Q96C36: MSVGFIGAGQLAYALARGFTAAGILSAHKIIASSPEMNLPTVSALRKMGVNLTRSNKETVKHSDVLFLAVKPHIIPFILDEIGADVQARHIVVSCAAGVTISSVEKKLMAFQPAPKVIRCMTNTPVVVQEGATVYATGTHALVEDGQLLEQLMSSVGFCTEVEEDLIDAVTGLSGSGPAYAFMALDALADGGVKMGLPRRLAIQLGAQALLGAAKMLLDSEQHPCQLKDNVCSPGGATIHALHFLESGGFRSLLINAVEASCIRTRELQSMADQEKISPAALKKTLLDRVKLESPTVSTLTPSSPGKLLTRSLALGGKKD
UniProt P49720: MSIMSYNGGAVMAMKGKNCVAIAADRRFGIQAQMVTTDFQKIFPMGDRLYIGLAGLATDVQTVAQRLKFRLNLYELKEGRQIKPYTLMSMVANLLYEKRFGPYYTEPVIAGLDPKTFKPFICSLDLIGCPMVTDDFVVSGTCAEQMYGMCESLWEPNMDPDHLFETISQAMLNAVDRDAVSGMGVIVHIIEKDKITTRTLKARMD
UniProt Q9ULZ3, whole entry, looked up: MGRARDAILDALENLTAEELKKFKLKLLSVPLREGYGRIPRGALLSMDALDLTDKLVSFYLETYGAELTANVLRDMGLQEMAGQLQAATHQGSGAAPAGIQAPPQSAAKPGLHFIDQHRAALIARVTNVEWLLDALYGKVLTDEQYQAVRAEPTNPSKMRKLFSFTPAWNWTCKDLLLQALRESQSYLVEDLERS
UniProt Q9BRP8: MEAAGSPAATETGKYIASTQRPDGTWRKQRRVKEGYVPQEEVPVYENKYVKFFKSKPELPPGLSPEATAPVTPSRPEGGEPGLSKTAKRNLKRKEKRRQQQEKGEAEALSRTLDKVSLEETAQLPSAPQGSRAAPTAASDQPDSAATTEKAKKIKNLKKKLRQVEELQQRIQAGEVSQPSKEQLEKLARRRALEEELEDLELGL
UniProt P28066: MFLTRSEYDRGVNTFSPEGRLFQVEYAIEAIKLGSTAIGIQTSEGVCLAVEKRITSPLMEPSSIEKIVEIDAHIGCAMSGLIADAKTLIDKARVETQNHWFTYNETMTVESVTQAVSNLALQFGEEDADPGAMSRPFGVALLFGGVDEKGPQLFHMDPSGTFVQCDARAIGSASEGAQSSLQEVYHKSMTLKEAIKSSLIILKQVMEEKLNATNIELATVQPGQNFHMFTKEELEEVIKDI
UniProt Q15274: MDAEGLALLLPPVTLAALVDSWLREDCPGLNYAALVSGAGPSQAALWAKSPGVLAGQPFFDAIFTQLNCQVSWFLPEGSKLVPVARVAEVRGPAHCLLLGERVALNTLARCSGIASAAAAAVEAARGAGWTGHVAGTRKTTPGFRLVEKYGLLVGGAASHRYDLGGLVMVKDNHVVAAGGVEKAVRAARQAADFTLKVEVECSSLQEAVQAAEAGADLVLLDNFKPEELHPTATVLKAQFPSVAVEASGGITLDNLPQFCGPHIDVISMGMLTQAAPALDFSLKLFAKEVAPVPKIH
UniProt Q96BW5: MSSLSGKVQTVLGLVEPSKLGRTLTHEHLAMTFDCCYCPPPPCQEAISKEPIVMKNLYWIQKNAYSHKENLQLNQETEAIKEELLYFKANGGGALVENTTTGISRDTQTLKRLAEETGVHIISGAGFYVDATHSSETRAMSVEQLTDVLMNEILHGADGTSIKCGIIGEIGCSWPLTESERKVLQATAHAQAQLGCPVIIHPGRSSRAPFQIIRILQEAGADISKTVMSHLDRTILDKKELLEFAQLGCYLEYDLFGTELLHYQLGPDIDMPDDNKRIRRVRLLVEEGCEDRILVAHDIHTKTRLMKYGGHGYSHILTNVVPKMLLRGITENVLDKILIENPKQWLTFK
UniProt O75832: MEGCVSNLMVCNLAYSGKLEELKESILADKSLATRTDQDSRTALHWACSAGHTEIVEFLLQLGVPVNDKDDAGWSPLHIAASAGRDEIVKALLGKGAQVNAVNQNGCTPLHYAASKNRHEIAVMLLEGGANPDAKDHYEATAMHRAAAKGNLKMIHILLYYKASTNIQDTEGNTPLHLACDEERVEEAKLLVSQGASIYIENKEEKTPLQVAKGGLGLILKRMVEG
UniProt P28074: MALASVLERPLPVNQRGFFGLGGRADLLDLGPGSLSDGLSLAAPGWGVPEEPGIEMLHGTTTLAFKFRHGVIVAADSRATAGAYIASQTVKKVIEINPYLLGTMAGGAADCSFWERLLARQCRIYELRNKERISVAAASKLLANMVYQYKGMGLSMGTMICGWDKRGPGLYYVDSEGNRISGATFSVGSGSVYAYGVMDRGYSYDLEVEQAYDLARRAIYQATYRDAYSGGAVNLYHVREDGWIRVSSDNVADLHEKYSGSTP
UniProt Q9NXS2: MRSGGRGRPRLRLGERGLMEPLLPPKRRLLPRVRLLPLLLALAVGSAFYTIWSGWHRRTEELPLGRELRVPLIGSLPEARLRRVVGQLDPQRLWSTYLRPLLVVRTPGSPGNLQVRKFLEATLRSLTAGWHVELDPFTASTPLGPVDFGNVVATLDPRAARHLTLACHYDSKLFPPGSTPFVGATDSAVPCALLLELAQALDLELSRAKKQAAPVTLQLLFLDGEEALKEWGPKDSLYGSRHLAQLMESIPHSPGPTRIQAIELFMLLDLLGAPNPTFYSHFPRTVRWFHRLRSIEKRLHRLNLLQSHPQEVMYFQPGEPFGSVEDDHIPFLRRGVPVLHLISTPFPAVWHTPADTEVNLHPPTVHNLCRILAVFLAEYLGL
UniProt O95758: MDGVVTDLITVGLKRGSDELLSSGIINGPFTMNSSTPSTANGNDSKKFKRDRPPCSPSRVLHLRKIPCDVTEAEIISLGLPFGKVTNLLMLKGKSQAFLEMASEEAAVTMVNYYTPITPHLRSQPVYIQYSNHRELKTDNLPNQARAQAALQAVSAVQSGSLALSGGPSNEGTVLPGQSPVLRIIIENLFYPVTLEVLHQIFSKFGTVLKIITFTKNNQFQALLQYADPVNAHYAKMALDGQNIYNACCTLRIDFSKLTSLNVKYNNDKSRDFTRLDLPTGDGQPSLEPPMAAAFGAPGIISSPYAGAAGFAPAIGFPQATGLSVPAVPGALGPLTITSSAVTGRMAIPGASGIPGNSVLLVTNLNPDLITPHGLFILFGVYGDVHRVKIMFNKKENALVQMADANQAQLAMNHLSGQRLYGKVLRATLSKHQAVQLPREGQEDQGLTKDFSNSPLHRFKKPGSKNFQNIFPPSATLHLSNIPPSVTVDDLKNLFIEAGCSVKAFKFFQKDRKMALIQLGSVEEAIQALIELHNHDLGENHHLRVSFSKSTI
UniProt Q9BXR0: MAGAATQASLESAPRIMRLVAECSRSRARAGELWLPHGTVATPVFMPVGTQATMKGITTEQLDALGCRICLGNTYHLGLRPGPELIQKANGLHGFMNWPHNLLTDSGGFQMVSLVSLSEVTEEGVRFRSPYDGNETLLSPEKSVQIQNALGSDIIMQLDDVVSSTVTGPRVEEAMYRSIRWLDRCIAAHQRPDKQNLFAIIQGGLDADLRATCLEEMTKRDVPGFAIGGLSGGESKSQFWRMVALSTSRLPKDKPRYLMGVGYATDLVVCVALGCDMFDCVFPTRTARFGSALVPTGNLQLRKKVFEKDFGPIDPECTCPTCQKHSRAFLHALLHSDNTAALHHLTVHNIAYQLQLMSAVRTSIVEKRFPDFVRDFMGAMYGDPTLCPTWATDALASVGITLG
UniProt P17706: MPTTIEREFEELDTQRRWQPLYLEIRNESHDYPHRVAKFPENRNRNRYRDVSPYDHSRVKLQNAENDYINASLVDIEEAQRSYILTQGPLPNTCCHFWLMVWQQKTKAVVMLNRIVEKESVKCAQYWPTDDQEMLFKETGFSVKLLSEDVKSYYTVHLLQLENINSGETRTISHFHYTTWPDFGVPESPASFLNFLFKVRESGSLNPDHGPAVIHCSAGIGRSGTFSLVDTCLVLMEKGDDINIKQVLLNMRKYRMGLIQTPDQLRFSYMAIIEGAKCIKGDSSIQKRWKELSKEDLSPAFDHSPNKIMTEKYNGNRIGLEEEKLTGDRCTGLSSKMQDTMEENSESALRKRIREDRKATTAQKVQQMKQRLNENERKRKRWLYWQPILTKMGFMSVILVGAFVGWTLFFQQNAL
UniProt Q9H939: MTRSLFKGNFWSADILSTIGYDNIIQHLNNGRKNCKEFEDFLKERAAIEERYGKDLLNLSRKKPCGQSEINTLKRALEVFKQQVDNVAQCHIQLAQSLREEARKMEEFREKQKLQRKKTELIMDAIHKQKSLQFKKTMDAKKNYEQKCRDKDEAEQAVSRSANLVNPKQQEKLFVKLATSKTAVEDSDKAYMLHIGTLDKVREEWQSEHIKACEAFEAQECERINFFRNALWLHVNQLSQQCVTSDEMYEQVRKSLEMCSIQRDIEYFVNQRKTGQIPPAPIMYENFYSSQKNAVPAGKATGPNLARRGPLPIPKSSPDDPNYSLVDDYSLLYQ
UniProt O95456: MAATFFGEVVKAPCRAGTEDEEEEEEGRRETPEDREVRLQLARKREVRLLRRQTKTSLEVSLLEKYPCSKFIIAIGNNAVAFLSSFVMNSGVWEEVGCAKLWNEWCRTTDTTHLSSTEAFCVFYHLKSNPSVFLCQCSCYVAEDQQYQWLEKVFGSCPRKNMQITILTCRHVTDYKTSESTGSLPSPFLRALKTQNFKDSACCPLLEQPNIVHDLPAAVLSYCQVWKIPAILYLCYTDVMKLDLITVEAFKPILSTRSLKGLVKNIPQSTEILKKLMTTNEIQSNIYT
UniProt Q969U7: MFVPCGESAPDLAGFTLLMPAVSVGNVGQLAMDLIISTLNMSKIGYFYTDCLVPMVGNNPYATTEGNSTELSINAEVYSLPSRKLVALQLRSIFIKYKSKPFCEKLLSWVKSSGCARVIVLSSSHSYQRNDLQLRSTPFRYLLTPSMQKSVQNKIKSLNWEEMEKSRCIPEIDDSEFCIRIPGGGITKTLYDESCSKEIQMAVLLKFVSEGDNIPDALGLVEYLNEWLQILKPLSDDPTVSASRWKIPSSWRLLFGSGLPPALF
UniProt Q6ZRP7: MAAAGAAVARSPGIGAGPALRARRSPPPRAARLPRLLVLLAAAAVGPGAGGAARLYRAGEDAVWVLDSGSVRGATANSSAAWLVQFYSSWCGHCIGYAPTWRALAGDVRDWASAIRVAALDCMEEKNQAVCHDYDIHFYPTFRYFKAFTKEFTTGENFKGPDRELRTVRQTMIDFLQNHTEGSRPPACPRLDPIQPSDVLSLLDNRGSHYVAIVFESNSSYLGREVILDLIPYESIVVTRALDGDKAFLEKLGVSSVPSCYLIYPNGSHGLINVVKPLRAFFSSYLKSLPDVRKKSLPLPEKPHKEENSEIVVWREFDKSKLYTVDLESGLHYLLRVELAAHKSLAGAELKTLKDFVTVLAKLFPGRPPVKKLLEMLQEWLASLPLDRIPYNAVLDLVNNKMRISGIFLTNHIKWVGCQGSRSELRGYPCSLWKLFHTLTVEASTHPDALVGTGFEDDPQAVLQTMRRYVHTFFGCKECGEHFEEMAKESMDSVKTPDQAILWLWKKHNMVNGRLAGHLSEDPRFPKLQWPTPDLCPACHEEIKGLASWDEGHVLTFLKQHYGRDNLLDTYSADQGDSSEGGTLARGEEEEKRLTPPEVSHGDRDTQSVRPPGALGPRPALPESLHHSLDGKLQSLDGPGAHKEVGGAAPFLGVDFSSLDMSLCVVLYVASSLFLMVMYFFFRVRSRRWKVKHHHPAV
UniProt Q7Z6K3: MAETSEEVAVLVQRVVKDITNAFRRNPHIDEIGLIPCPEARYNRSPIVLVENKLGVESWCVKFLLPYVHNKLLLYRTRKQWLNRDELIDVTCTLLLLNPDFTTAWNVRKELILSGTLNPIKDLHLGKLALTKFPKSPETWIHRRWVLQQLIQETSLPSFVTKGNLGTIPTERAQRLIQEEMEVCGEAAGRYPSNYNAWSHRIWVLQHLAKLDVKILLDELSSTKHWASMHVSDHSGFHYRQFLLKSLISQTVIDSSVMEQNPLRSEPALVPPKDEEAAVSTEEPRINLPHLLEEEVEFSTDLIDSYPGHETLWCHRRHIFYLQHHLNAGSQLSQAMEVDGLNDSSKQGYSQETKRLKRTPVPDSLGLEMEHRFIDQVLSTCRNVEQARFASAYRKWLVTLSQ

Tests used:
Experiment in all cases: log2 fold change, soluble protein after heating vs DMSO (PISA); higher = thermal stabilisation; K562 cells, 10 uM, 30 min; active = over 0.2 and 3.5 SD of the protein, either way, in both replicates (recomputed)
[1] = compound: CS(=O)(=O)c1ccc(-c2cnc(N)c(C(=O)Nc3ccccc3)n2)cc1
Summary of the method: (§1)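 Thermal stability values are relative to control samples and come from duplicates. They are expressed as log2 fold changes. For measurement, K562 cells (2×10^6 cells/mL) received 10 μM compound for 30 min, and aliquots were heated for 3 min over 48°C-58°C, pooled, and extracted at 4°C in PBS with 0.5% NP-40. Soluble protein, the supernatant after 21,000xg for 90 min, was quantified by TMTpro 16plex LC-MS/MS with equalised channel sums.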

crizotinib = compound: C[C@@H](Oc1cc(-c2cnn(C3CCNCC3)c2)cnc1N)c1c(Cl)ccc(F)c1Cl [crizotinib]
Summary of the method: as §1

[2] = compound: C[C@@H]1COCCN1C2=NC(=NC(=C2)C3(CC3)S(=O)(=O)C)C4=C5C=CNC5=CC=C4
Summary of the method: as §1

[3] = compound: C[C@H](C1=CC=C(C=C1)C(=O)NC2=C3C=CNC3=NC=C2)N
Summary of the method: as §1

duvelisib = compound: C[C@H](Nc1ncnc2nc[nH]c12)c1cc2cccc(Cl)c2c(=O)n1-c1ccccc1 [duvelisib]
Summary of the method: as §1

gandotinib = compound: Cc1cc(Nc2cc(CN3CCOCC3)c3nc(C)c(Cc4ccc(Cl)cc4F)n3n2)n[nH]1 [gandotinib]
Summary of the method: as §1

tozasertib = compound: Cc1cc(Nc2cc(N3CCN(C)CC3)nc(Sc3ccc(NC(=O)C4CC4)cc3)n2)n[nH]1 [tozasertib]
Summary of the method: as §1

[4] = compound: Cc1cc(SCc2sc(-c3ccc(C(F)(F)F)cc3)nc2C)ccc1OCC(=O)O
Summary of the method: as §1

doramapimod = compound: Cc1ccc(-n2nc(C(C)(C)C)cc2NC(=O)Nc2ccc(OCCN3CCOCC3)c3ccccc23)cc1 [doramapimod]
Summary of the method: as §1

ispinesib = compound: Cc1ccc(C(=O)N(CCCN)[C@@H](c2nc3cc(Cl)ccc3c(=O)n2Cc2ccccc2)C(C)C)cc1 [ispinesib]
Summary of the method: as §1

Measured: log2 fold change

QARS (UniProt P47897)
inactive: [1] 0.055 | crizotinib -0.074 | [2] -0.377 | [3] 0.478 | duvelisib -0.173 | gandotinib 0.198 | tozasertib 0.013 | [4] 0.081 | doramapimod 0.295 | ispinesib -0.293

PSMF1 (UniProt Q92530)
inactive: [1] 0.027 | crizotinib 0.019 | [2] 0.076 | [3] 0.016 | duvelisib 0.072 | gandotinib -0.027 | tozasertib -0.069 | [4] -0.038 | doramapimod -0.029 | ispinesib 0.019

PSMA7 (UniProt O14818)
inactive: [1] 0.024 | crizotinib 0.049 | [2] -0.005 | [3] -0.021 | duvelisib -0.026 | gandotinib 0.066 | tozasertib 0.014 | [4] -0.018 | doramapimod 0.004 | ispinesib -0.014

PRXL2B isoform 3 (UniProt Q8TBF2)
inactive: [1] -0.05 | crizotinib 0.063 | [2] 0.07 | [3] 0.077 | duvelisib 0.047 | gandotinib -0.006 | tozasertib -0.016 | [4] -0.011 | doramapimod -0.019 | ispinesib 0.074

PYCR2 (UniProt Q96C36)
inactive: [1] -0.013 | crizotinib 0.02 | [2] 0.057 | [3] -0.039 | duvelisib 0.007 | gandotinib 0.007 | tozasertib -0.026 | [4] -0.015 | doramapimod 0.002 | ispinesib 0.048

PSMB3 (UniProt P49720)
inactive: [1] -0.012 | crizotinib 0.107 | [2] -0.118 | [3] -0.002 | duvelisib -0.084 | gandotinib 0.002 | tozasertib 0.015 | [4] -0.014 | doramapimod 0.015 | ispinesib 0.031

PSMA1 isoform 2 (UniProt P25786)
inactive: [1] -0.02 | crizotinib 0.068 | [2] -0.041 | [3] 0.062 | duvelisib -0.035 | gandotinib 0.019 | tozasertib 0.006 | [4] -0.012 | doramapimod -0.009 | ispinesib 0.039

PSMB7 (UniProt Q99436)
inactive: [1] 0.046 | crizotinib 0.067 | [2] -0.055 | [3] 0.037 | duvelisib -0.065 | gandotinib 0.132 | tozasertib 0.001 | [4] 0.004 | doramapimod 0.005 | ispinesib 0.078

PYCARD (UniProt Q9ULZ3)
inactive: [1] -0.066 | crizotinib 0.137 | [2] 0.189 | [3] -0.044 | duvelisib 0.064 | gandotinib -0.194 | tozasertib -0.005 | [4] -0.071 | doramapimod 0.033 | ispinesib 0.099

PTDSS2 (UniProt Q9BVG9)
inactive: [1] -0.007 | crizotinib -0.249 | [2] 0.017 | [3] 0.019 | duvelisib -0.034 | gandotinib -0.149 | tozasertib 0.056 | [4] 0.014 | doramapimod 0.036 | ispinesib -0.095

PYM1 (UniProt Q9BRP8)
inactive: [1] -0.054 | crizotinib 0.017 | [2] -0.195 | [3] 0.193 | duvelisib -0.034 | gandotinib 0.172 | tozasertib 0.018 | [4] 0.021 | doramapimod 0.037 | ispinesib -0.078

PSMA5 (UniProt P28066)
inactive: [1] 0.006 | crizotinib 0.008 | [2] -0.059 | [3] 0.059 | duvelisib -0.001 | gandotinib 0.034 | tozasertib 0.005 | [4] 0.004 | doramapimod 0.018 | ispinesib 0.018

QPRT (UniProt Q15274)
inactive: [1] 0.011 | crizotinib 0.027 | [2] 0.127 | [3] -0.002 | duvelisib 0.051 | gandotinib 0.021 | tozasertib -0.004 | [4] -0.033 | doramapimod 0.002 | ispinesib 0.086

PTER (UniProt Q96BW5)
inactive: [1] 0.002 | crizotinib 0.023 | [2] 0.05 | [3] -0.078 | duvelisib 0.036 | gandotinib 0.029 | tozasertib -0.055 | [4] -0.018 | doramapimod 0.003 | ispinesib 0.031

PSMD10 (UniProt O75832)
inactive: [1] 0.034 | crizotinib 0.025 | [2] 0.101 | [3] 0.026 | duvelisib 0.038 | gandotinib 0.013 | tozasertib 0.128 | [4] 0.099 | doramapimod -0.076 | ispinesib 0.026

PSMB5 (UniProt P28074)
inactive: [1] -0.047 | crizotinib 0.037 | [2] -0.067 | [3] 0.015 | duvelisib -0.086 | gandotinib 0.049 | tozasertib 0.023 | [4] -0.011 | doramapimod -0.003 | ispinesib 0.058

PSMG3 (UniProt Q9BT73)
inactive: [1] -0.004 | crizotinib 0.059 | [2] 0.069 | [3] -0.088 | duvelisib 0.073 | gandotinib -0.003 | tozasertib -0.063 | [4] 0.033 | doramapimod -0.027 | ispinesib 0.085

QPCTL (UniProt Q9NXS2)
inactive: [1] 0.019 | crizotinib 0.002 | [2] -0.005 | [3] 0.093 | duvelisib -0.021 | gandotinib 0.027 | tozasertib -0.065 | [4] 0.082 | doramapimod 0.027 | ispinesib -0.127

PTBP3 isoform 4 (UniProt O95758)
inactive: [1] -0.035 | crizotinib 0.063 | [2] -0.002 | [3] -0.022 | duvelisib 0.023 | gandotinib -0.052 | tozasertib 0.026 | [4] 0.086 | doramapimod -0.065 | ispinesib 0.003

QTRT1 (UniProt Q9BXR0)
inactive: [1] -0.012 | crizotinib 0.035 | [2] 0.027 | [3] -0.09 | duvelisib 0.06 | gandotinib 0 | tozasertib -0.017 | [4] -0.018 | doramapimod -0.002 | ispinesib 0.022

PTPN2 (UniProt P17706)
inactive: [1] 0.012 | crizotinib 0.064 | [2] 0.077 | [3] 0.042 | duvelisib -0.055 | gandotinib -0.065 | tozasertib 0.044 | [4] 0.038 | doramapimod -0.048 | ispinesib 0.056

Retrieved one by one from the entries so far (two):
PSMA1 isoform 2 (UniProt P25786)
inactive: [1] -0.02 | crizotinib 0.068 | [2] -0.041 | [3] 0.062 | duvelisib -0.035 | gandotinib 0.019 | tozasertib 0.006 | [4] -0.012 | doramapimod -0.009 | ispinesib 0.039

PSMA7 (UniProt O14818)
inactive: [1] 0.024 | crizotinib 0.049 | [2] -0.005 | [3] -0.021 | duvelisib -0.026 | gandotinib 0.066 | tozasertib 0.014 | [4] -0.018 | doramapimod 0.004 | ispinesib -0.014

More records.

PSTPIP2 (UniProt Q9H939)
inactive: [1] 0.056 | crizotinib 0.054 | [2] -0.042 | [3] 0.083 | duvelisib 0.011 | gandotinib 0.028 | tozasertib 0 | [4] 0.011 | doramapimod 0.011 | ispinesib -0.036

PSMG1 (UniProt O95456)
inactive: [1] -0.011 | crizotinib 0.015 | [2] -0.006 | [3] -0.053 | duvelisib 0.024 | gandotinib -0.023 | tozasertib -0.041 | [4] -0.038 | doramapimod -0.055 | ispinesib 0.048

PSMG2 (UniProt Q969U7)
inactive: [1] -0.007 | crizotinib 0.042 | [2] 0.07 | [3] -0.082 | duvelisib 0.028 | gandotinib -0.031 | tozasertib 0.002 | [4] -0.02 | doramapimod -0.034 | ispinesib -0.008

PTPN11 isoform 1 (UniProt Q06124)
inactive: [1] -0.002 | crizotinib 0.029 | [2] 0.053 | [3] -0.061 | duvelisib 0.044 | gandotinib 0.026 | tozasertib 0.003 | [4] 0.023 | doramapimod 0.008 | ispinesib 0.045

QSOX2 (UniProt Q6ZRP7)
inactive: [1] 0.027 | crizotinib 0.007 | [2] 0.095 | [3] -0.032 | duvelisib 0.054 | gandotinib -0.008 | tozasertib -0.003 | [4] -0.007 | doramapimod 0.008 | ispinesib -0.03

PUDP isoform 4 (UniProt Q08623)
inactive: [1] 0.055 | crizotinib 0.057 | [2] 0.137 | [3] -0.183 | duvelisib 0.07 | gandotinib 0.068 | tozasertib -0.028 | [4] 0.027 | doramapimod -0.043 | ispinesib 0.134

PTPRA (UniProt P18433)
inactive: [1] 0.013 | crizotinib 0.07 | [2] 0.059 | [3] -0.087 | duvelisib 0.068 | gandotinib -0.031 | tozasertib -0.026 | [4] 0.028 | doramapimod -0.002 | ispinesib 0.098

PTAR1 (UniProt Q7Z6K3)
inactive: [1] 0.06 | crizotinib -0.014 | [2] 0.1 | [3] -0.098 | duvelisib 0.06 | gandotinib -0.092 | tozasertib -0.01 | [4] 0.009 | doramapimod 0.069 | ispinesib -0.028
